A short description of the assay: qHTS Assay for Lipid Storage Modulators in Drosophila S3 Cells.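 On cell number change: cells counted by Cell Tracker Red CMTPX staining in the red channel.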 The settings on record: BODIPY lipid droplet fluorescence, 18-24 h; for cell number change: measured here: cell count max response, cells fed with added oleic acid. An outline of the steps: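 Drosophila S3 cells got compounds at several concentrations plus oleic acid (400 uM solution). Laser-scanning cytometry with 488 nm excitation read lipid droplets at 500-530 nm and cells at 575-640 nm. Percent activity was relative to 20 uM Triacsin C.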

[1] abbreviates: measured here: lipid fluorescence (Fed channel) AC50, cells fed with added oleic acid.
The mark [2] stands for this setting: measured here: cell number channel AC50, cells fed with added oleic acid.

The structures appear in SMILES notation. Some of the results follow. These are further read-outs of the screen, such as a control signal, another cell line or another target. No call is given for them. The list favours compounds with an active or inconclusive main result. Words in brackets tell the shape of the fitted curve; partial curves, single points and poor fits give uncertain potencies.

The AC50 is the concentration giving half of the maximal activity seen. Higher therefore signals activity only at high concentration. Consider `Cc1ccccc1CC(=O)Nc1cccc(S(=O)(=O)N2CCCC2)c1`, for which the cell number change is -14.1%. In addition, the AC50 under setting [1] was 5.17 µM [falling, partial curve].

Consider `O=C(CSCc1c(Cl)cccc1Cl)Nc1ccccc1C(=O)N1CCOCC1`, for which the cell number change was -19.1%. The AC50 under setting [1] is 2.31 µM [rising, partial curve].

Turning to `C/C(N)=C(/C#N)C(=O)CSc1nc2ccc(C)cc2[nH]1`, the cell number change came out at 10.6%. Also, the concentration at half-maximal activity (AC50) under setting [2] is 0.366 µM [rising, single point]. For `CC(CNCc1ccc2c(c1)OCO2)NCc1ccc2c(c1)OCO2` (stereo unspecified), the cell number change turned out to be 6.42%. The AC50 under setting [1] was 0.146 µM [falling, full curve, poor fit]. As to `COCCOC(=O)C1=C(C)N=C2SCCC(=O)N2C1c1ccc(OC(=O)c2ccco2)cc1` (stereo unspecified), the cell number change amounted to 16.4%.

`COc1ccc(CNc2nccs2)cc1`: the cell number change is 3.3%. For the same compound, the half-maximal activity concentration (AC50) under setting [1] was 29.1 µM [rising, single point]. As to `O=C(Nc1ccccc1)N1CCN(Cc2ccc(Cl)cc2)CC1`, the cell number change was 5.73%. Regarding `c1ccc(CCN(Cc2ccccc2)C2CCN(C3CCCC3)CC2)cc1`, the cell number change is -31.5%. In addition, the concentration at half-maximal activity (AC50) under setting [2] was 32.6 µM [falling, single point]. Moreover, the concentration at half-maximal activity (AC50) under setting [1] was 1.64 µM [falling, partial curve]. `O=[N+]([O-])c1ccc(N2CCN(Cc3ccc(Br)o3)CC2)cc1`: the AC50 under setting [1] was 20.6 µM [falling, single point]. Regarding `Cc1ccc(C)c(Cn2c3ccccc3c3cnn(CC(=O)NCCN4CCOCC4)c(=O)c32)c1`, the cell number change was -27.5%. The concentration at half-maximal activity (AC50) under setting [1] is 16.4 µM [falling, partial curve, poor fit]. On to `Cc1ccc(NC(=O)C(=O)NCc2ccccn2)cc1`, for which the AC50 under setting [1] is 1.46 µM [rising, partial curve]. As to `O=C(Cn1nc(C(F)F)cc1C(F)F)N/N=C/c1ccc2c(c1)OCO2`, the cell number change is 134%. Further, under setting [2], the AC50 was 29.1 µM [rising, single point]. As to `CCOc1cc2[nH]c(=S)n(Cc3ccc(C)o3)c(=O)c2cc1OCC`, the cell number change is -169%. For `Cc1ccc(S(=O)(=O)N2CCCCC2)cc1C(=O)Nc1ccc2cn[nH]c2c1`, the cell number change is -18.6%. In addition, under setting [1], the AC50 is 0.0092 µM [rising, full curve, poor fit]. For `CCSCc1nnc(SCC(=O)Nc2nc(C)cs2)n1C`, the cell number change worked out at 20.6%. Same read-out and setting: under `CCCc1cc(=O)oc2c(C)c(OCC(=O)N3CCC(C(=O)O)(c4ccccc4)CC3)ccc12` stands 12.3%. As for `CNc1ccc(/C=C(\C#N)C(=O)Nc2ccccn2)cc1[N+](=O)[O-]`, the cell number change was determined as 30.7%. In addition, the AC50 under setting [2] is 7.31 µM [rising, partial curve].

For the compound `Cc1ccc(-c2nnc(-c3ccc(NC(=O)c4ccco4)cc3)o2)cc1`, the concentration at half-maximal activity (AC50) under setting [2] was 6.51 µM [falling, single point]. On to `COc1cccc(CN(CC(=O)NCc2ccccc2)C(=O)c2csnn2)c1`, for which the AC50 under setting [1] is 0.00517 µM [falling, full curve, poor fit].

As for `Cc1ccc2ncccc2c1NS(=O)(=O)c1ccccc1`, the cell number change is -38.3%. Moreover, the AC50 under setting [2] is 1.84 µM [falling, full curve, poor fit]. As to `CSCC[C@H](NC(=O)OC(C)(C)C)C(=O)N1CCC(C(=O)N[C@@H](C)C(=O)O)CC1`, the cell number change came to 26.2%. In addition, the AC50 under setting [2] was 0.92 µM [rising, full curve, poor fit]. For the same compound, the half-maximal activity concentration (AC50) under setting [1] is 18.4 µM [falling, partial curve]. With `O=C(NCc1ccc(F)cc1)C(Cc1ccccc1)NS(=O)(=O)c1cccs1` (stereo unspecified), the cell number change came to 54.2%. Besides, the AC50 under setting [2] is 16.4 µM [rising, single point]. The concentration at half-maximal activity (AC50) under setting [1] was 0.206 µM [falling, full curve, poor fit].

Consider `O=C(/C=C/c1ccccc1)Nc1nnc(-c2ccco2)o1`, for which the cell number change turned out to be 8.68%. For the same compound, the AC50 under setting [1] was 1.16 µM [falling, single point]. Turning to `CC(C)C(=O)Nc1ccc2c(c1)nc(CCN1CCN(c3ccccn3)CC1)n2C`, the cell number change turned out to be 38.3%. In addition, under setting [2], the concentration at half-maximal activity (AC50) was 2.06 µM [rising, partial curve, poor fit]. Consider `O=C(c1cc2ccccc2o1)c1cccs1`, for which the cell number change was -9.78%. In addition, the AC50 under setting [1] was 29.1 µM [falling, single point].

For the compound `CCOC(=O)CC(NS(=O)(=O)c1ccc2[nH]c(=O)sc2c1)c1ccc(C)cc1` (stereo unspecified), the cell number change amounted to 14.8%. Besides, under setting [1], the concentration at half-maximal activity (AC50) is 8.2 µM [falling, single point]. On to `CC(=O)c1ccc(OC(C)C)c(CC(C(N)=O)C(N)=O)c1`, for which the AC50 under setting [1] was 23.1 µM [falling, partial curve].

In the case of `CC(C)CC(=O)NNC(=S)Nc1ccc(S(N)(=O)=O)cc1`, the cell number change is -49.6%. Besides, the concentration at half-maximal activity (AC50) under setting [2] was 29.1 µM [falling, single point]. Under setting [1], the AC50 is 29.1 µM [falling, single point]. With `CCOC(=O)N1CCN(C(=O)c2ccc3c(=O)n(CCc4ccc(OC)c(OC)c4)c(=O)[nH]c3c2)CC1`, the concentration at half-maximal activity (AC50) under setting [1] is 1.46 µM [falling, full curve]. Regarding `CC(Nc1nc(Nc2ccc(F)cc2)nc(SCC(N)=O)n1)c1ccccc1` (stereo unspecified), the cell number change was -39.8%. Also, the AC50 under setting [2] was 20.6 µM [falling, single point]. Under setting [1], the AC50 is 0.651 µM [rising, single point].

As to `O=C(CSc1ncccc1C(=O)O)c1ccc2ccccc2c1`, the cell number change is -13.2%. On the same count and under the same terms, next, `O=C(COC(=O)c1ccccc1C(=O)c1ccc(Cl)cc1)NCC1CCCO1` (stereo unspecified): 46%; `CCCCCCn1cnc2c(c1=O)c1nc3ccccc3nc1n2/N=C/c1ccco1`: 5.59%. With `Cc1ccc(CCNC(=O)C2CC(=O)N(CCc3ccccc3)C2)cc1` (stereo unspecified), the cell number change amounted to 35.7%. Further, the AC50 under setting [2] was 0.731 µM [rising, partial curve, poor fit]. Besides, the AC50 under setting [1] was 29.1 µM [rising, single point]. For the compound `CC1CN(C(=O)CN2C(=O)NC(C)(c3ccccc3)C2=O)CC(C)O1` (stereo unspecified), the cell number change was -18.2%. The AC50 under setting [1] is 3.66 µM [falling, full curve, poor fit]. `COc1ccc(S(=O)(=O)NC(C)C(=O)O)cc1` (stereo unspecified): the cell number change is -100%. The concentration at half-maximal activity (AC50) under setting [2] is 23.1 µM [falling, partial curve]. Moreover, under setting [1], the concentration at half-maximal activity (AC50) was 1.16 µM [falling, full curve]. For the compound `CCOC(=O)c1ccc(N2C(=O)CC(N3CCN(C(=O)c4ccco4)CC3)C2=O)cc1` (stereo unspecified), the cell number change was determined as 8.59%. Besides, under setting [1], the concentration at half-maximal activity (AC50) was 3.66 µM [falling, full curve]. Take `CC(Cl)C(=O)Nc1c2c(nn1-c1ccccc1)CSC2` (stereo unspecified): the cell number change was found to be 21.4%. Moreover, under setting [1], the AC50 was 29.1 µM [rising, single point]. `O=C(c1ccco1)N1CCN(CCOc2ccc(F)cc2)CC1`: the AC50 under setting [2] was 2.06 µM [rising, partial curve, poor fit] and the concentration at half-maximal activity (AC50) under setting [1] was 29.1 µM [falling, single point]. As for `Clc1ccc(Cl)c(OCCCCN2CCNCC2)c1`, the cell number change turned out to be 5.25%. Also, the half-maximal activity concentration (AC50) under setting [1] was 29.1 µM [rising, single point].

As to `Cc1ccnc(NS(=O)(=O)c2ccccc2)n1`, the cell number change was -14.3%. Besides, the concentration at half-maximal activity (AC50) under setting [1] was 1.3 µM [falling, full curve, poor fit].

As to `O=C(CCc1nc2ccccc2s1)c1ccccc1`, the cell number change is -73.2%. Also, the half-maximal activity concentration (AC50) under setting [2] is 16.4 µM [falling, single point]. In the case of `COc1ccc(CNC(=O)COC(=O)/C=C/c2cccc(Br)c2)cc1OC`, the cell number change is -44.7%. Moreover, the half-maximal activity concentration (AC50) under setting [2] is 0.92 µM [falling, full curve]. With `Cc1ccc(-c2cn(S(=O)(=O)c3ccc(C)cc3)nc2N)cc1`, the AC50 was 1.84 µM [rising, partial curve, poor fit] under setting [2] and 2.31 µM [rising, partial curve] under setting [1].

Take `O=C(COc1ccccc1)Nc1ccncc1`: the cell number change is -3.22%. Further, the AC50 under setting [1] is 6.51 µM [falling, single point]. Regarding `CCc1nn(CCCC(=O)N2CCN(c3ccc(OC)cc3)CC2)c(=O)c2cc3occc3n12`, the AC50 under setting [1] is 2.31 µM [rising, partial curve]. Turning to `O=C(C[n+]1ccc(C(=O)N/N=C/c2ccc(Cl)cc2Cl)cc1)c1ccccc1`, the cell number change was found to be 117%. Besides, the half-maximal activity concentration (AC50) under setting [2] was 6.51 µM [rising, partial curve]. Further, under setting [1], the AC50 is 1.84 µM [rising, partial curve]. For `Cc1ccnc(NC(=O)CCCc2c[nH]c3ccccc23)c1`, the cell number change is 2.42%.

On to `Cc1nnc(SCC(=O)Nc2ccccc2NC(=O)CSc2nnc(C)s2)s1`, for which the cell number change is -1.85%. In addition, the half-maximal activity concentration (AC50) under setting [1] was 0.411 µM [rising, partial curve, poor fit]. `O=C(Cc1ccsc1)NNC(=O)c1ccccc1Cl`: the cell number change is -10%. On to `CCOc1ccc(C(=O)Nc2ccc(NC(=O)c3ccco3)c(Cl)c2)cc1Cl`, for which the AC50 is 0.92 µM [rising, partial curve] under setting [2] and 0.164 µM [rising, full curve, poor fit] under setting [1]. For `CCOc1ccc(/C=N/NC(=O)c2csc(C)c2C)c(OCC)c1`, the cell number change amounted to 22.2%. Moreover, under setting [1], the AC50 is 9.2 µM [rising, partial curve].

Turning to `N#Cc1ccccc1S(=O)(=O)N1CCC(C(=O)NCc2ccccc2CN2CCCC2)CC1`, the cell number change is -2.58%. The half-maximal activity concentration (AC50) under setting [1] was 0.092 µM [falling, full curve, poor fit].

`CCOC(=O)/C=C1\Nc2ccccc2SC1=O`: the cell number change was determined as 10.6%. In addition, the AC50 under setting [1] was 2.06 µM [rising, partial curve].

In the case of `CC(OC(=O)c1ccccc1Br)C(=O)Nc1nc(-c2cccc([N+](=O)[O-])c2)cs1` (stereo unspecified), the cell number change is 6.99%. Also, the concentration at half-maximal activity (AC50) under setting [1] was 0.82 µM [rising, full curve, poor fit].

As for `COc1ccc(NS(=O)(=O)c2ccc(OCC(=O)N3CCCC3)cc2)cc1`, the concentration at half-maximal activity (AC50) under setting [2] is 0.58 µM [rising, single point]. Consider `CCOC(=O)c1ccc[n+](C(C)C(=O)c2ccc(-c3ccccc3)cc2)c1` (stereo unspecified), for which the cell number change was -34.5%. Further, under setting [2], the AC50 is 32.6 µM [falling, single point]. Moreover, under setting [1], the concentration at half-maximal activity (AC50) is 0.0259 µM [falling, full curve, poor fit]. On to `CC(C)(C)OC(=O)CNC(=O)c1nc[nH]c1C(=O)NCc1ccc(CNC(=O)OC(C)(C)C)cc1`, for which the cell number change came to 4.49%. Further, the AC50 under setting [2] was 0.0731 µM [rising, full curve, poor fit]. Besides, the AC50 under setting [1] was 29.1 µM [falling, single point].

As to `O=C(COc1ccc(Br)cc1Cl)NC1CCCCC1`, the cell number change is -72.3%. In addition, the AC50 under setting [2] is 18.4 µM [falling, single point]. As for `Nc1nonc1-n1nnc(C(=O)N/N=C/c2ccccc2)c1CN1CCc2ccccc21`, the cell number change is -10.5%.

The record behind these values is PubChem BioAssay AID2685 (National Center for Advancing Translational Sciences (NCATS), 2010).
